From publication PMC10646013
These are yes or no findings as the source states them, for the method shown. Binding calls can cover weak binding; strength is not graded here.

By UniProt entry, the sequences of proteins in these tests, tags left out. Where a name states a change or a piece, a line headed by the entry shows the natural chain unless it says otherwise.
UniProt P49069: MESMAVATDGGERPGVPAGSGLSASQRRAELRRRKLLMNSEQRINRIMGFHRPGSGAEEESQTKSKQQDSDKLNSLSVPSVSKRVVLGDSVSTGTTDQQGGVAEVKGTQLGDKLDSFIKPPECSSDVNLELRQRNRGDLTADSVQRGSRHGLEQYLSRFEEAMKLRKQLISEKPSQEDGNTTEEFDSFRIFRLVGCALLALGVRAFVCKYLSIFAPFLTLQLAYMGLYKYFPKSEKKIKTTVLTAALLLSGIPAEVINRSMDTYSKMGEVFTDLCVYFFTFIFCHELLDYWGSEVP

Key:
hsGet1 (human) [1] = target: T1, hsGet1 (human) (UniProt O00258); test: cryo-EM structure; hsGet2^ΔN-Get1/Get3 in PMAL-C8 amphipol; images acquired previously (ref. 24) re-processed in cryoSPARC, 3.2 Å, C2 symmetry; both purified
T1 sequence: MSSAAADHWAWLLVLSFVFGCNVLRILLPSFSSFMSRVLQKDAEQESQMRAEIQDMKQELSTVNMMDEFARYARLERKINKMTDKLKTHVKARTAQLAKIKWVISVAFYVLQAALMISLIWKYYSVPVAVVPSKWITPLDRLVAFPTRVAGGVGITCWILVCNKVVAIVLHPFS

hsGet1 (human) [2] = target: T1, hsGet1 (human); test: cryo-EM structure; hsGet2^ΔN/Δα3’-Get1 complexed with apo hsGet3, reconstituted in PMAL-C8 amphipol; single-particle reconstruction at 4.2 Å, no symmetry applied; both purified

| binding (hsGet1 (human) [1]) | binding (hsGet1 (human) [2]) | Substance |
| --- | --- | --- |
| binds |  | hsGet2^ΔN (from UniProt P49069) (domain or fragment) |
|  | binds | hsGet2^ΔN/Δα3’ (from UniProt P49069) (domain or fragment) |
